Laboratory results taken from article doi:10.1101/2022.01.24.477557.
These are yes or no findings as the source states them, for the method shown. For some assays here: In cells and extracts the contact can be indirect. Some results given as binding are weak or reduced against the parent protein; the word gives no strength. Each block holds one substance with its values, some of them ahead of it.

Sequences of proteins named here, by UniProt entry; tags and fusion partners are left off. A change or cut given only in a name is not applied to a line headed by its entry.
UniProt P08727: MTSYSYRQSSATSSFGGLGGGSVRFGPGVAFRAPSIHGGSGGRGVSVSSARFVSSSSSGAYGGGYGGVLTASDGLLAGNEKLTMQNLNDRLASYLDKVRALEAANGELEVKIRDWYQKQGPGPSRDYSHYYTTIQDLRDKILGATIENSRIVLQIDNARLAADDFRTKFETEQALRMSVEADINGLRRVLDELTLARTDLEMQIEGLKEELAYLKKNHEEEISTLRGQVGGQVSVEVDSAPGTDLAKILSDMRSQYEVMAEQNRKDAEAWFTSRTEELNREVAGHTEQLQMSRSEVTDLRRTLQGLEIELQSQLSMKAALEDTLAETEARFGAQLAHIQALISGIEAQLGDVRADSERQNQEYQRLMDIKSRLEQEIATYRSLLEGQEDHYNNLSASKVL
UniProt P05787: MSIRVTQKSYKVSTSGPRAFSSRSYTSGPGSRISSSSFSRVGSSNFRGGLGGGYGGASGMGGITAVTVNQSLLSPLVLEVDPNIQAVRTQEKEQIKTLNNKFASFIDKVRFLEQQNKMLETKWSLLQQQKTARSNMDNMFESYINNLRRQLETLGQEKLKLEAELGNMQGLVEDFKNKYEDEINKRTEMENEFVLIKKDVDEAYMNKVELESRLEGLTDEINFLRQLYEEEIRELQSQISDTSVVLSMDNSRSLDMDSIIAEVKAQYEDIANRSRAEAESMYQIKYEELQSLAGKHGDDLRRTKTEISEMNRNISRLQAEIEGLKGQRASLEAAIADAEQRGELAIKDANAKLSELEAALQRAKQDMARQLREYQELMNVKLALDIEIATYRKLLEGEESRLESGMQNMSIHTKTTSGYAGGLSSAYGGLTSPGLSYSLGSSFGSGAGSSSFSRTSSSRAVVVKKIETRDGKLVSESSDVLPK

Tests used:
[1] = biological target: Heterogeneous nuclear ribonucleoprotein K (human (endogenous in MDA-MB-231)) (UniProt P61978); assay: co-IP
GFP-tagged K19 = GFP-tagged K19 (UniProt P08727); assay: co-IP
[2] = biological target: Keratin 19 (human (endogenous in MDA-MB-231)) (UniProt P08727); assay: co-IP
[3] = biological target: Keratin 19 (human (endogenous in MDA-MB-231)) (UniProt P08727); assay: proximity ligation
[4] = biological target: preassembled K8/K19 filaments (UniProt P05787); assay: co-sedimentation

binding [1]: binds
Substance: Keratin 19 (from UniProt P08727 1-400)

Substance: Heterogeneous nuclear ribonucleoprotein K (from UniProt P61978 1-463)
binding (GFP-tagged K19): binds
binding [2]: binds
binding [3]: binds

binding [4]: binds
Substance: recombinant HNRNPK (from UniProt P61978 1-463)
